Patent publication US20080311681A1, “Antibody Binding Affinity Ligands” (priority 2004, published 2008)

Tested on: monoclonal antibody
Experiment: Chromatographic evaluation of ligands coupled on Fractogel (packed column, load, wash, elution, regeneration)
Type: binding
Protocol: The new resins were assessed in packed mode. 1 mL of each resin was packed into an HR5 chromatography column (GE Healthcare) applying standard conditions.
Before loading the matrix with the monoclonal antibody, the column was equilibrated with 6 column volumes equilibration buffer containing 50 mM Na-phosphate (pH 7.0; cond. 9 mS cm^−1). After equilibration a monoclonal antibody solution in equilibration buffer (protein conc. 1.14 mg/mL) was loaded to the column. Subsequently, the column was washed with 6 column volumes of equilibration buffer and eluted with 6 column volumes of elution buffer 1 (25 mM sodium acetate pH 5.5; cond. 1.8 mS cm^−1) and 6 column volumes of elution buffer 2 (25 mM sodium acetate buffer pH 3.8; 0.5 mS cm^−1). The column was stored in […] ethanol. Afterwards, the matrix was regenerated with 40 mM phosphoric acid and 20 mM sodium hydroxid. The flow rate for equilibration, load and wash was 60 cm/h, elution and regeneration was performed at a flow rate of 30 cm/h.

[1] = process step Elution 1, 25 mM sodium acetate pH 5.5
[2] = process step Elution 2, 25 mM sodium acetate buffer pH 3.8
[3] = process step Flow trough, ligand coupled on Fractogel
[4] = process step Wash, equilibration buffer pH 7.0

| Substance | Step yield [%] [1] | mAb content [mg/mL] [1] | mAb content [mg] [1] | Step yield [%] [2] | mAb content [mg/mL] [2] | mAb content [mg] [2] | Step yield [%] [3] | mAb content [mg/mL] [3] | mAb content [mg] [3] | Step yield [%] (process step Regeneration) | mAb content [mg/mL] (process step Regeneration) | mAb content [mg] (process step Regeneration) | Step yield [%] [4] | mAb content [mg/mL] [4] | mAb content [mg] [4] |
| --- | --- | --- | --- | --- | --- | --- | --- | --- | --- | --- | --- | --- | --- | --- | --- |
| D-Phe-(L)Arg-(L)Arg-Gly [LI#16] | 73.4% | 1.13 mg/mL | 5.65 mg | 20.5% | 0.35 mg/mL | 1.58 mg | 0.9% | 0.01 mg/mL | 0.07 mg | 2.1% | 0.11 mg/mL | 0.17 mg | 0.0% | 0.00 mg/mL | 0.00 mg |
| DBHBA-(L)Asn-(L)Arg-Gly [LII#55] | 11.8% | 0.19 mg/mL | 0.86 mg | 57.9% | 1.05 mg/mL | 4.2 mg | 17.0% | 0.19 mg/mL | 1.24 mg | 10.1% | 0.49 mg/mL | 0.74 mg | 1.20% | 0.02 mg/mL | 0.09 mg |
